Laboratory results reported in US8993515B2, “Peptidomimetics comprising N-amino cyclic urea residues and uses thereof” (Valorisation-Recherche, Limited Partnership, priority 2012, dated 2015).
At least one compound was matched to its structure with a doubt left.

Protein sequences, listed by entry. Tags and fused reporters are not part of them. Residues count along the entry.
UniProt P16671, 30-439 limits assumed: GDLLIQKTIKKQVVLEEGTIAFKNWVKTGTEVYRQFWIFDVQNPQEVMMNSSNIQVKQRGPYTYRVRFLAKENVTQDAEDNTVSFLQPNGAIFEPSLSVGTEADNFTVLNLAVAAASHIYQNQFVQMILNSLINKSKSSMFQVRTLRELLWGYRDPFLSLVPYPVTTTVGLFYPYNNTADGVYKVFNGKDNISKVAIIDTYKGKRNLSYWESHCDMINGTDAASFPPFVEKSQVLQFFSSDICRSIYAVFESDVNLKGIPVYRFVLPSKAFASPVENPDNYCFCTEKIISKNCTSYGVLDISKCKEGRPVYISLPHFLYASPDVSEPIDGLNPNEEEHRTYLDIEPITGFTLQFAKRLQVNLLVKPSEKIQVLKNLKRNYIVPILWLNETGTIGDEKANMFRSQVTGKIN

Target: T1, recombinant soluble His-tagged CD36 (Homo sapiens, UniProt P16671)
T1 construct: recombinant soluble His-tagged CD36 functionalized surface
Assay: SPR spectroscopy binding to CD36
Settings: SPR response for ligand 100 nM to 30 μM fitted to Langmuir isotherm
Method: The affinity of the small peptide ligand binding to a recombinant soluble His-tagged CD36 functionalized surface was screened by SPR sensing as previously described (Bolduc, O. R.; Lambert-Lanteigne, P.; Colin, D. Y.; Zhao, S. S.; Proulx, C.; Boeglin, D.; Lubell, W. D.; Pelletier, J. N.; Féthière, J.; Ong, H.; Masson, J.-F. Analyst. 2011, 136, 3142-3148). Briefly, the SPR sensors were prepared by immobilizing the His-tagged CD36 to 3-mercaptopropionyl-leucinyl-histidinyl-aspartyl-leucinyl-histidinyl-aspartic acid (3-Mpa-LHDLHD) with Nα,Nα-bis(carboxymethyl)-L-lysine at the C-terminus, a modified peptide monolayer competent to bind His-tagged biomolecules. A calibration curve of the SPR response for ligand concentrations ranging from 100 nM to 30 μM was fitted to the Langmuir isotherm (Equation 1) to determine K (K=1/Kd) for the CD36-ligand system. ΔλSPR=(K[ligand])ΔλSPRmax(1+K[ligand])^−1 (1)

C[C@H](NC(=O)[C@@H](Cc1c[nH]c2ccccc12)NC(=O)[C@@H](N)Cc1c[nH]cn1)C(=O)Nn1cc(Cc2ccccc2)n([C@H](Cc2ccccc2)C(=O)N[C@@H](CCCCN)C(N)=O)c1=O [31b, His-D-Trp-Ala-(N-amino-4-benzyl-imidazolin-2-one)-D-Phe-Lys-NH2]
Kd: 11 µM
